Cleaved PARP in drug-treated melanoma cells

Source: doi:10.1371/journal.pone.0140310, primary screening data, rounded.

First drug in all entries: Src-I1, 10 µM, COc1cc2ncnc(Nc3ccc(Oc4ccccc4)cc3)c2cc1OC

Compounds and concentrations:
dorsomorphin: c1cc(-c2cnn3cc(-c4ccc(OCCN5CCCCC5)cc4)cnc23)ccn1 at 2 µM
GW0742: Cc1cc(SCc2sc(-c3ccc(C(F)(F)F)c(F)c3)nc2C)ccc1OCC(=O)O at 10 µM
SNS-032: CC(C)(C)c1cnc(CSc2cnc(NC(=O)C3CCNCC3)s2)o1 at 0.05 µM
PF-04217903: OCCn1cc(-c2cnc3nnn(Cc4ccc5ncccc5c4)c3n2)cn1 at 5 µM
erlotinib: C#Cc1cccc(Nc2ncnc3cc(OCCOC)c(OCCOC)cc23)c1 at 4 µM
palbociclib: CC(=O)c1c(C)c2cnc(Nc3ccc(N4CCNCC4)cn3)nc2n(C2CCCC2)c1=O at 0.2 µM
dovitinib: CN1CCN(c2ccc3nc(-c4c(N)c5c(F)cccc5[nH]c4=O)[nH]c3c2)CC1 at 0.5 µM
tamatinib: COc1cc(Nc2ncc(F)c(Nc3ccc4c(n3)NC(=O)C(C)(C)O4)n2)cc(OC)c1OC at 2 µM
KU-0063794: COc1ccc(-c2ccc3c(N4CCOCC4)nc(N4C[C@@H](C)O[C@@H](C)C4)nc3n2)cc1CO at 0.1 µM
midostaurin: CO[C@@H]1[C@H](N(C)C(=O)c2ccccc2)C[C@H]2O[C@]1(C)n1c3ccccc3c3c4c(c5c6ccccc6n2c5c31)C(=O)NC4 at 0.4 µM
nilutamide: CC1(C)NC(=O)N(c2ccc([N+](=O)[O-])c(C(F)(F)F)c2)C1=O at 5 µM
vatalanib: Clc1ccc(Nc2nnc(Cc3ccncc3)c3ccccc23)cc1 at 10 µM
embelin: CCCCCCCCCCCC1=C(O)C(=O)C=C(O)C1=O at 6 µM
FH535: Cc1cc([N+](=O)[O-])ccc1NS(=O)(=O)c1cc(Cl)ccc1Cl at 5 µM
PF-562271: CN(c1ncccc1CNc1nc(Nc2ccc3c(c2)CC(=O)N3)ncc1C(F)(F)F)S(C)(=O)=O at 0.4 µM
PLX4720: CCCS(=O)(=O)Nc1ccc(F)c(C(=O)c2c[nH]c3ncc(Cl)cc23)c1F at 0.4 µM
GW441756: Cn1cc(/C=C2\C(=O)Nc3cccnc32)c2ccccc21 at 2 µM
etoposide: COc1cc([C@@H]2c3cc4c(cc3[C@@H](O[C@@H]3O[C@@H]5CO[C@@H](C)O[C@H]5[C@H](O)[C@H]3O)[C@H]3COC(=O)[C@H]23)OCO4)cc(OC)c1O at 0.1 µM
cediranib: COc1cc2c(Oc3ccc4[nH]c(C)cc4c3F)ncnc2cc1OCCCN1CCCC1 at 2 µM
CX-4945: O=C(O)c1ccc2c(c1)nc(Nc1cccc(Cl)c1)c1ccncc12 at 2 µM
lapatinib: CS(=O)(=O)CCNCc1ccc(-c2ccc3ncnc(Nc4ccc(OCc5cccc(F)c5)c(Cl)c4)c3c2)o1 at 4 µM
ZM336372: Cc1ccc(NC(=O)c2cccc(N(C)C)c2)cc1NC(=O)c1ccc(O)cc1 at 10 µM
YM155: COCC[n+]1c2c(n(Cc3cnccn3)c1C)C(=O)c1ccccc1C2=O at 0.002 µM
veliparib: C[C@]1(c2nc3c(C(N)=O)cccc3[nH]2)CCCN1 at 7 µM
ruxolitinib: N#CC[C@H](C1CCCC1)n1cc(-c2ncnc3[nH]ccc23)cn1 at 5 µM
FK866: O=C(/C=C/c1cccnc1)NCCCCC1CCN(C(=O)c2ccccc2)CC1 at 0.05 µM
darinaparsin: C[As](C)SC[C@H](NC(=O)CC[C@H](N)C(=O)O)C(=O)NCC(=O)O at 2 µM
XAV939: Oc1nc(-c2ccc(C(F)(F)F)cc2)nc2c1CSCC2 at 10 µM
KU-55933: O=c1cc(-c2cccc3c2Sc2ccccc2S3)oc(N2CCOCC2)c1 at 5 µM
sorafenib: CNC(=O)c1cc(Oc2ccc(NC(=O)Nc3ccc(Cl)c(C(F)(F)F)c3)cc2)ccn1 at 2 µM
lestaurtinib: C[C@]12O[C@H](C[C@]1(O)CO)n1c3ccccc3c3c4c(c5c6ccccc6n2c5c31)CNC4=O at 0.02 µM
tanespimycin: C=CCNC1=C2C[C@@H](C)C[C@H](OC)[C@H](O)[C@@H](C)/C=C(\C)[C@H](OC(N)=O)[C@@H](OC)/C=C\C=C(/C)C(=O)NC(=CC1=O)C2=O at 0.01 µM
OSI-906: C[C@]1(O)C[C@@H](c2nc(-c3ccc4ccc(-c5ccccc5)nc4c3)c3c(N)nccn32)C1 at 2 µM
crizotinib: C[C@@H](Oc1cc(-c2cnn(C3CCNCC3)c2)cnc1N)c1c(Cl)ccc(F)c1Cl at 1 µM
BI-78D3: O=c1[nH]nc(Sc2ncc([N+](=O)[O-])s2)n1-c1ccc2c(c1)OCCO2 at 1 µM
GW9662: O=C(Nc1ccccc1)c1cc([N+](=O)[O-])ccc1Cl at 10 µM
dasatinib: Cc1nc(Nc2ncc(C(=O)Nc3c(C)cccc3Cl)s2)cc(N2CCN(CCO)CC2)n1 at 0.02 µM

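The test systems are human melanoma cell lines, treated with two drugs together for 72 h and then stained and imaged. Each value is the cleaved-PARP-positive fraction of nuclei relative to DMSO-treated wells, in %, so that 100 equals the control and higher values mean more apoptosis. Concentrations were fixed for each drug; these are the higher of two levels. These are primary screening values without error estimates. The marker varies much from line to line, for technical or biological reasons.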 An unselected part of the screen is shown.

| Partner | MEL-HO | WM115 | C32 | SK-MEL-28 | COLO 829 | A375 |
|---|---|---|---|---|---|---|
| nilutamide | 31.5 | 63.5 | 75.3 | 85.1 | 115 | 36.4 |
| GW9662 | 225 | 187 | 88.6 | 451 | 169 | 34.8 |
| SNS-032 | 106 | 176 | 116 | 188 | 201 | 85.0 |
| tanespimycin | 101 | 1800 | 1020 | 249 | 90.9 | 45.9 |
| cediranib | 161 | 79.2 | 104 | 198 | 28.5 | 66.8 |
| PLX4720 | 84.9 | 142 | 87.8 | 68.4 | 179 | 56.0 |
| PF-562271 | 274 | 156 | 81.1 | 80.6 | 107 | 58.9 |
| etoposide | 122 | 72.1 | 84.0 | 342 | 152 | 33.7 |
| crizotinib | 91.6 | 91.4 | 78.7 | 137 | 94.9 | 101 |
| palbociclib | 175 | 160 | 98.4 | 145 | 68.1 | 26.5 |
| GW0742 | 115 | 110 | 119 | 35.7 | 27.1 | 43.5 |
| ZM336372 | 60.9 | 108 | 199 | 157 | 129 | 122 |
| lapatinib | 214 | 39.2 | 128 | 91.2 | 50.0 | 73.2 |
| GW441756 | 158 | 352 | 116 | 110 | 32.0 | 45.0 |
| dorsomorphin | 168 | 217 | 117 | 95.3 | 29.4 | 107 |
| tamatinib | 94.1 | 88.5 | 97.4 | 312 | 76.8 | 61.0 |
| FH535 | 101 | 80.7 | 105 | 115 | 340 | 107 |
| sorafenib | 32.5 | 63.0 | 71.9 | 242 | 33.6 | 57.0 |
| erlotinib | 149 | 165 | 98.3 | 224 | 46.5 | 155 |
| KU-55933 | 55.7 | 149 | 86.3 | 92.2 | 81.3 | 25.8 |
| midostaurin | 66.3 | 237 | 82.5 | 87.1 | 144 | 104 |
| darinaparsin | 52.6 | 92.4 | 116 | 178 | 147 | 71.4 |
| ruxolitinib | 416 | 68.4 | 73.1 | 101 | 81.8 | 68.5 |
| XAV939 | 49.2 | 100 | 106 | 311 | 70.0 | 53.8 |
| dasatinib | 32.9 | 10700 | 114 | 78.2 | 82.7 | 496 |
| dovitinib | 49.1 | 178 | 79.3 | 192 | 83.4 | 25.4 |
| BI-78D3 | 105 | 173 | 78.0 | 153 | 95.7 | 40.6 |
| vatalanib | 68.3 | 145 | 108 | 81.9 | 45.0 | 92.5 |
| PF-04217903 | 73.9 | 127 | 69.6 | 85.7 | 71.6 | 55.6 |
| KU-0063794 | 53.4 | 534 | 109 | 102 | 165 | 20.3 |
| YM155 | 52.6 | 140 | 84.6 | 1750 | 79.3 | 191 |
| FK866 | 108 | 74.2 | 82.7 | 800 | 284 | 32.4 |
| OSI-906 | 240 | 131 | 90.2 | 232 | 38.6 | 88.6 |
| embelin | 26.3 | 56.7 | 92.2 | 82.6 | 15.1 | 25.7 |
| CX-4945 | 60.7 | 97.3 | 143 | 161 | 113 | 214 |
| veliparib | 31.0 | 155 | 140 | 207 | 35.3 | 17.6 |
| lestaurtinib | 114 | 405 | 97.4 | 75.8 | 97.2 | 105 |

3 of the entries, repeated:

Partner	MEL-HO	WM115	C32	SK-MEL-28	COLO 829	A375
cediranib	161	79.2	104	198	28.5	66.8
dasatinib	32.9	10700	114	78.2	82.7	496
midostaurin	66.3	237	82.5	87.1	144	104